# Test results as given in the supplement of paper PMC8326762, “A Small Molecule Inhibitor of Pex3–Pex19 Interaction Disrupts Glycosome Biogenesis and Causes Lethality in Trypanosoma brucei” (Frontiers in Cell and Developmental Biology, 2021).
# Where a name gives a salt, the structure may show the parent alone. The list shows a part of the results. The data scatter; read single values as rough.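 Optical density at 600 nm measured yeast growth. Because the two-hybrid strains grew without histidine, growth required Pex3–Pex19 binding. Trypanosome selectivity meant a compound inhibited the trypanosome-pair strain's growth by more than 65% but the human-pair strain's by less than 65%.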
# Legend:
# [1] = system: Saccharomyces cerevisiae HF7c pdr5Δ; experiment: general growth inhibition of yeast HF7c pdr5Δ in -Leu -Trp medium, relative to DMSO; higher = stronger general growth inhibition; details: 100 µM; 24 h
# [2] = system: human PEX3-PEX19 interaction (yeast two-hybrid); experiment: growth inhibition of yeast two-hybrid strain reporting HsPex3-HsPex19 interaction, relative to DMSO; higher = stronger inhibition of human Pex3-Pex19 interaction / growth; details: 100 µM; 24 h; 3-aminotriazole 10 mM
# [3] = system: T. brucei Pex3-Pex19 interaction (yeast two-hybrid); experiment: growth inhibition of yeast two-hybrid strain reporting TbPex3-TbPex19 interaction, relative to DMSO; higher = stronger inhibition of T. brucei Pex3-Pex19 interaction / growth; details: 100 µM; 24 h
SMILES,general growth inhibition [1] [%],growth inhibition [2] [%],growth inhibition [3] [%]
CC(=O)O[C@H]1C[C@@]2(C)[C@@H](C[C@@H](O)[C@H]3[C@@]4(C)CC[C@@H](O)[C@@H](C)[C@@H]4CC[C@@]32C)/C1=C(\CCC=C(C)C)C(=O)O [Fusidic acid sodium],47,26.8,29.7
Nc1ncnc2c1ncn2C1CCCO1 (stereo not drawn),2.76,-35.7,34.9
NC1C=CC=C(C(=O)O)C1 (stereo not drawn) [Gabaculine hydrochloride],17.7,13.2,37.5
CNC(=O)[C@H]1O[C@@H](n2cnc3c(NCc4cccc(I)c4)ncnc32)[C@H](O)[C@@H]1O,34.1,41.1,66.4
CCCCc1ncc(/C=C(\Cc2cccs2)C(=O)O)n1Cc1ccc(C(=O)O)cc1 [Eprosartan mesylate],38.6,7.23,59
OC[C@H]1O[C@H]([S-])[C@H](O)[C@@H](O)[C@@H]1O.[Au+] [Aurothioglucose],70,48.9,53.5
C[C@](N)(Cc1ccc(O)c(O)c1)C(=O)O [L-alpha-Methyl DOPA],52.7,52.4,61
O=C(O)CCc1nc(-c2ccccc2)c(-c2ccccc2)o1 [Oxaprozin],41.1,35.3,42.2
O=C(C1CCCCC1)N1CC(=O)N2CCc3ccccc3C2C1 (stereo not drawn) [Praziquantel],48.2,47.9,67
CS(=O)(=O)c1cccc(CNc2nc(Nc3ccc4c(c3)CCC(=O)N4)ncc2C(F)(F)F)c1,41.6,46.6,58.1
O=C1CN(/N=C/c2ccc(-c3ccc([N+](=O)[O-])cc3)o2)C(=O)N1 [Dantrolene sodium],22.8,27.7,43.3

# A stretch taken from the entries so far, as a working copy:
SMILES,general growth inhibition [1] [%],growth inhibition [2] [%],growth inhibition [3] [%]
Nc1ncnc2c1ncn2C1CCCO1 (stereo not drawn),2.76,-35.7,34.9
NC1C=CC=C(C(=O)O)C1 (stereo not drawn) [Gabaculine hydrochloride],17.7,13.2,37.5
